From PubChem BioAssay (EPA / NIEHS)
The inconclusive results got no clear call from the source; some entries with a clear call stand among them for comparison. Potencies of inconclusive entries are doubtful fits and often do not repeat. The source made the active and inactive calls. How the source made its calls: active means hit-call score of the fitted dose curve at least 0.9, where 1 is the maximum; inconclusive means response in the unintended direction; inactive means score below 0.9.

Assay: Tanguay_ZF_120hpf_OTIC_legacy: (Legacy) Oregon State University Tanguay Lab 120 Hour Post-fertilization zebrafish Assay for Otic Vesicle Malformation (AID 2283639)
In short: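 Tropical 5D wild-type zebrafish embryos were exposed statically in sealed, foil-covered plates at 28C until 120 hpf, with 0.64% (vol/vol) DMSO final. Otic vesicle malformation was scored present/absent by brightfield microscopy, with DMSO as baseline.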

Row | Structure (SMILES) | AC50 | outcome
1 | CC(=O)OC/C=C(\C)CCC=C(C)C | inconclusive: 82.6 µM | 
2 | O=C(c1ccc(OCCN2CCCCC2)cc1)c1c(-c2ccc(O)cc2)sc2cc(O)ccc12 | inconclusive: 4.34 µM | 
3 | CCOc1ccc2[nH]cc(C(=O)NCc3ccccc3)c(=O)c2n1 |  | inactive
4 | CCC(C)(C)C(=O)O[C@H]1C[C@@H](C)C=C2C=C[C@H](C)[C@H](CC[C@@H]3C[C@@H](O)CC(=O)O3)[C@H]21 | active: 0.747 µM | 
5 | COc1ccc(S(=O)(=O)N2C(=O)[C@@](c3ccccc3OC)(N3C[C@H](O)C[C@H]3C(=O)N(C)C)c3cc(Cl)ccc32)c(OC)c1 | inconclusive: 40.9 µM | 
6 | O=C(O)c1ccccc1-n1cc(C(=O)O)c(=O)c2cc(Nc3c(F)cc(F)cc3Cl)c(Cl)cc21 |  | inactive
7 | CCCCCCCCO | inconclusive: 150 µM | 
8 | CC(C)CCCCCCOC(=O)C1CCCCC1C(=O)OCCCCCCC(C)C (configuration not stated) | inconclusive: 17.9 µM | 
9 | NC(=O)NN=Cc1ccc([N+](=O)[O-])o1 | inconclusive: 25.4 µM | 
10 | COC(=O)c1ccc(O)cc1 | inconclusive: 154 µM | 
11 | Cc1cccc([N+](=O)[O-])c1C |  | inactive
12 | O=C(O)c1ccc2c(c1)nc(C(=O)NC1CCN(C3CC3)CC1)n2Cc1cc(-c2ccc(Cl)s2)on1 | inconclusive: 48.6 µM | 
13 | N[C@@H](Cc1cc(I)c(Oc2ccc(O)c(I)c2)c(I)c1)C(=O)O | inconclusive: 2.29 µM | 
14 | c1ccc2cc3c(ccc4ccccc43)cc2c1 | active: 40.6 µM | 
15 | CCCCCCCCN(C)CCCCCCCC | inconclusive: 203 µM | 

Among those listed so far, these contain a carbonyl joined to an NH by a bond outside any ring.
Row | Structure (SMILES) | AC50 | outcome
3 | CCOc1ccc2[nH]cc(C(=O)NCc3ccccc3)c(=O)c2n1 |  | inactive
9 | NC(=O)NN=Cc1ccc([N+](=O)[O-])o1 | inconclusive: 25.4 µM | 
12 | O=C(O)c1ccc2c(c1)nc(C(=O)NC1CCN(C3CC3)CC1)n2Cc1cc(-c2ccc(Cl)s2)on1 | inconclusive: 48.6 µM | 

Assay: Tanguay_ZF_120hpf_PE_legacy: (Legacy) Oregon State University Tanguay Lab 120 Hour Post-fertilization zebrafish Assay for Pericardial Edema (AID 2283640);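 on AC50: potency for increased incidence of pericardial edema versus DMSO baseline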
In short: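 Read-out is the presence or absence of pericardial edema at 120 hpf under brightfield, with gain of signal fitted against DMSO controls. Larvae (5D wild-type) were statically exposed at 28C with 0.64% final DMSO.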

Row | Structure (SMILES) | AC50 | outcome
16 | C=CN1CCCC1=O | inconclusive: 202 µM | 
17 | c1ccc2c(c1)-c1cccc3c1c-2cc1ccccc13 | inconclusive: 68.9 µM | 
18 | C[C@]12C=CC(=O)C=C1CC[C@@H]1[C@@H]2C(=O)C[C@@]2(C)[C@H]1CC[C@]2(O)C(=O)CO | inconclusive: 127 µM | 
19 | N#C[C@@H]1CC(F)(F)CN1C(=O)CNC1CC2CCC(C1)N2c1ncccn1 (some centres not stated) | inconclusive: 0.165 µM | 
20 | CCCCCCCCOc1ccc(C(=O)c2ccccc2)c(O)c1 | inconclusive: 202 µM | 
21 | OCC(CO)n1cnc(-c2ccc(F)cc2)c1-c1ccnc(Oc2ccccc2)n1 |  | inactive
22 | CCOC(N)=O | inconclusive: 52.4 µM | 
23 | CNCc1cc(F)ccc1Oc1ccc(Cl)c(Cl)c1 | inconclusive: 0.995 µM | 
24 | NS(=O)(=O)c1cc2c(cc1Cl)NCNS2(=O)=O | inconclusive: 43.4 µM | 
25 | CN(C)CCOC(c1ccccc1)c1ccccc1 | active: 26.7 µM | 
26 | O=C1CN(N=Cc2ccc([N+](=O)[O-])o2)C(=O)N1 | inconclusive: 1.75 µM | 
27 | CC[C@@H]1C[C@H](N(Cc2cc(C(F)(F)F)cc(C(F)(F)F)c2)C(C)=O)c2cc(C(F)(F)F)ccc2N1C(=O)OC(C)C |  | inactive
28 | CCO[Si](CCCNC(N)=O)(OCC)OCC |  | inactive
29 | Cc1ccc(C(C)C)cc1 | inconclusive: 3.08 µM | 
30 | C[C@]12CC[C@@H]3c4ccc(O)cc4C[C@@H](CCCCCCCCCS(=O)CCCC(F)(F)C(F)(F)F)[C@H]3[C@@H]1CC[C@@H]2O (some centres not stated) | inconclusive: 35.6 µM | 
31 | CCCCCCOC(=O)CC(CC(=O)OCCCCCC)(OC(=O)CCC)C(=O)OCCCCCC |  | inactive
32 | COc1ccc2sc(C(=O)Nc3nnn[nH]3)c(OC(C)C)c2c1 | inconclusive: 56 µM | 
33 | Cn1cnc([N+](=O)[O-])c1Sc1ncnc2nc[nH]c12 | inconclusive: 0.00064 µM | 
34 | CCC(=C(c1ccc(O)cc1)c1ccc(OCCN(C)C)cc1)c1ccccc1 | inconclusive: 1.5 µM | 
35 | COC(=O)CC(=O)OC | inconclusive: 64.3 µM | 
36 | CCC(C)N(C)C(=O)c1cc2ccccc2c(-c2ccccc2Cl)n1 (configuration not stated) | active: 6.53 µM | 
37 | Nc1ccc(S(=O)(=O)c2ccc(N)cc2)cc1 | inconclusive: 169 µM | 
38 | CCCCOC(=O)C(C)Oc1ccc(Oc2ccc(C(F)(F)F)cn2)cc1 (configuration not stated) |  | inactive

Assay: Tanguay_ZF_120hpf_BRAI_legacy: (Legacy) Oregon State University Tanguay Lab 120 Hour Post-fertilization zebrafish Assay for Brain Malformation (AID 2283641)
In short: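 Brain malformation in Tropical 5D zebrafish was recorded as a binary endpoint after static compound exposure from early development to 120 hpf at 28C. Activity was analysed against DMSO as negative control.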

Row | Structure (SMILES) | AC50 | outcome
39 | C=CN1CCCC1=O | inconclusive: 1.45 µM | 
40 | c1ccc2c(c1)-c1cccc3c1c-2cc1ccccc13 |  | inactive
41 | CCCCCCCCOc1ccc(C(=O)c2ccccc2)c(O)c1 | inconclusive: 5.96 µM | 
42 | NS(=O)(=O)c1cc2c(cc1Cl)NCNS2(=O)=O |  | inactive
43 | Cn1cnc([N+](=O)[O-])c1Sc1ncnc2nc[nH]c12 | inconclusive: 198 µM | 
44 | CCC(=C(c1ccc(O)cc1)c1ccc(OCCN(C)C)cc1)c1ccccc1 | inconclusive: 104 µM | 
45 | Nc1ccc(S(=O)(=O)c2ccc(N)cc2)cc1 | inconclusive: 202 µM | 
46 | CCCCOC(=O)C(C)Oc1ccc(Oc2ccc(C(F)(F)F)cn2)cc1 (configuration not stated) | inconclusive: 8.16 µM | 

Assay: Tanguay_ZF_120hpf_SOMI_legacy: (Legacy) Oregon State University Tanguay Lab 120 Hour Post-fertilization zebrafish Assay for Somite Malformation (AID 2283647)
In short: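 5D WT zebrafish; chorion removed 4 hpf; 1 embryo/well from 6 hpf; static exposure to 120 hpf, 28C, 0.64% DMSO final. Endpoint: somite malformation, binary, brightfield. Mortality excluded.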

Row | Structure (SMILES) | AC50 | outcome
47 | CNCc1cc(F)ccc1Oc1ccc(Cl)c(Cl)c1 | inconclusive: 19.1 µM | 
48 | CCO[Si](CCCNC(N)=O)(OCC)OCC |  | inactive
49 | COc1ccc2sc(C(=O)Nc3nnn[nH]3)c(OC(C)C)c2c1 |  | inactive
50 | Cn1cnc([N+](=O)[O-])c1Sc1ncnc2nc[nH]c12 |  | inactive
51 | COC(=O)CC(=O)OC |  | inactive
52 | Nc1ccc(S(=O)(=O)c2ccc(N)cc2)cc1 |  | inactive
